These are yes or no findings as the source states them, for the method shown. Binding seen in cells or lysates may run through a third protein. Binding can be weak; no strength is given. Where a sequence is shown, tags or fusion partners need not be part of it.
Tests used:
[1] = target: CTB4a^KMXBG-YFP^N (rice (Oryza sativa ssp. japonica cv. KMXBG)); assay: split reporter; bimolecular fluorescence complementation in Nicotiana benthamiana; YFP^N and YFP^C fusions; signal at chloroplasts
[2] = target: CTB4a^Towada-YFP^N (rice (Oryza sativa ssp. japonica cv. Towada)); assay: as above

binding [1]: binds | binding [2]: binds
B1: AtpB-YFP^C (protein, UniProt P12085 1-498)
chain: MRTNPTTSRPGVSTIEEKSTGRIDQIIGPVLDVTFPPGKLPYIYNALVVKSRDTDGKQINVTCEVQQLLGNNRVRAVAMSATDGLMRGMEVIDTGAPLSVPVGGATLGRIFNVLGEPVDNLGPVDTSATFPIHRSAPAFIELDTKLSIFETGIKVVDLLAPYRRGGKIGLFGGAGVGKTVLIMELINNIAKAHGGVSVFGGVGERTREGNDLYMEMKESGVINEKNLEESKVALVYGQMNEPPGARMRVGLTALTMAEYFRDVNKQDVLLFIDNIFRFVQAGSEVSALLGRMPSAVGYQPTLSTEMGSLQERITSTKKGSITSIQAVYVPADDLTDPAPATTFAHLDATTVLSRGLASKGIYPAVDPLDSTSTMLQPRIVGNEHYETAQRVKQTLQRYKELQDIIAILGLDELSEEDRLTVARARKIERFLSQPFFVAEVFTGSPGKYVGLAETIRGFQLILSGELDGLPEQAFYLVGNIDEASTKAINLEEENKLKK

Source: PMC5376651
